From EP0390682A1, “Cosmetic and pharmaceutical compositions containing hydrophilic derivatives of benzylidene camphor and sulfonated hydrophilic derivatives of benzylidene camphor” (L'OREAL, priority 1989, dated 1990)
pIC50: −log10 of the molar value. For at least one compound, name, drawing or mass did not settle the structure.

Tested on: peroxydation des lipides (broyats de cervelles de rats)
Experiment: Chemiluminescence of rat brain homogenates undergoing autoxidation (antioxidant test, inhibition of lipid peroxidation)
Format: biochemical
Details: rat brain homogenate diluted 12-fold in NaCl/potassium phosphate buffer; antioxidant dissolved in methanol or DMSO; slopes of chemiluminescence vs time curves compared with control; read-out: C₅₀, concentration en anti-oxydant permettant l'inhibition de 50% de la peroxydation

## Cc1cc(C(C)(C)C)c(O)c(C(C)(C)C)c1 [BHT, ditert.-butyl-hydroxy toluène]
  pIC50: 5.49
